Measurements: the supplement of paper PMC12823440, “Inhibitors supercharge kinase turnover through native proteolytic circuits” (Nature, 2025)
The other results are listed elsewhere or left out. The calls rarely recur for the same compound in another form.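 Kinases, fused to nanoluciferase, were expressed in K562 cells; luminescence was measured every 4 h from 2 to 18 h as percent of control (DMSO = 100%, positive control = 0%). A time point is decreased if signal falls significantly (2 sigma). Hits were called by the authors by a rule that is not shown; the count of time points alone does not decide it.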

Chains of the proteins cited; added tags and fusions are not shown. Lines headed by an entry give the natural chain unless they say otherwise; changes in a name come on top.
UniProt Q16288, whole entry, looked up: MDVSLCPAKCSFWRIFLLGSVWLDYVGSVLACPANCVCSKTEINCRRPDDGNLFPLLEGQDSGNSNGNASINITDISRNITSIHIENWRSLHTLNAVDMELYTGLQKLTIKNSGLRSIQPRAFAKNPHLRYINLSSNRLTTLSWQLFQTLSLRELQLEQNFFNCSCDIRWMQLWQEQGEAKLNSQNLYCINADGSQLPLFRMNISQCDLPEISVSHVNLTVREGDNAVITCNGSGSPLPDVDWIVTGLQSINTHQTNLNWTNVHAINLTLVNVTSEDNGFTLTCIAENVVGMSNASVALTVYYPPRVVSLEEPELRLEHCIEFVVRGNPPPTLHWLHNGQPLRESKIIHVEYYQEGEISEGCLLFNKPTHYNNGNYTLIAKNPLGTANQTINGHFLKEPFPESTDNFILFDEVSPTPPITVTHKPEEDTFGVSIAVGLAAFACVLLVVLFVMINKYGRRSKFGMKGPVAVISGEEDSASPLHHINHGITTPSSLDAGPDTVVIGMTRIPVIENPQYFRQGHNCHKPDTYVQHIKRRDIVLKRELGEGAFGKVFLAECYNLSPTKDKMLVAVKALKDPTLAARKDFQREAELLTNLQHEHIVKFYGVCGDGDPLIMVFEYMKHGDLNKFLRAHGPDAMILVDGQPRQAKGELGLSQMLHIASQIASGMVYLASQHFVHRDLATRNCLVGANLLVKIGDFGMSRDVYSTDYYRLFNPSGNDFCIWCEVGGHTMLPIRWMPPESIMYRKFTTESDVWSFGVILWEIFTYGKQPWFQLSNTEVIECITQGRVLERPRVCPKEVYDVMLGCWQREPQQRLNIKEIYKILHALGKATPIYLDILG
UniProt O96013: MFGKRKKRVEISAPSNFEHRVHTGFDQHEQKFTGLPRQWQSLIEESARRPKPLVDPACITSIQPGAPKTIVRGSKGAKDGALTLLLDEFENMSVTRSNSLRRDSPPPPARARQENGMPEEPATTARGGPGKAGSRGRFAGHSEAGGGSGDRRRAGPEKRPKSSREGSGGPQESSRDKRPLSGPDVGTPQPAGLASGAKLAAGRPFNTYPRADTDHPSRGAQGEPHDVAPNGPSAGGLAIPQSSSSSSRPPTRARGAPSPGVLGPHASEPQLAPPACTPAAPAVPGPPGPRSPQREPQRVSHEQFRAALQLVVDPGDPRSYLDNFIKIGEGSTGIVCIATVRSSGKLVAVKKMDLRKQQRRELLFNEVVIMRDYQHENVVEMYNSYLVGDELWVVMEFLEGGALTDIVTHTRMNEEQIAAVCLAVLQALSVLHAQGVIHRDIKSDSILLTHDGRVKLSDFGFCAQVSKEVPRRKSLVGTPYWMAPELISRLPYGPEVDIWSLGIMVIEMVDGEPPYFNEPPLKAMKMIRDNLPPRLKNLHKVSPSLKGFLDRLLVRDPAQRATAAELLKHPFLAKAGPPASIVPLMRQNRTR
UniProt Q15118, whole entry, looked up: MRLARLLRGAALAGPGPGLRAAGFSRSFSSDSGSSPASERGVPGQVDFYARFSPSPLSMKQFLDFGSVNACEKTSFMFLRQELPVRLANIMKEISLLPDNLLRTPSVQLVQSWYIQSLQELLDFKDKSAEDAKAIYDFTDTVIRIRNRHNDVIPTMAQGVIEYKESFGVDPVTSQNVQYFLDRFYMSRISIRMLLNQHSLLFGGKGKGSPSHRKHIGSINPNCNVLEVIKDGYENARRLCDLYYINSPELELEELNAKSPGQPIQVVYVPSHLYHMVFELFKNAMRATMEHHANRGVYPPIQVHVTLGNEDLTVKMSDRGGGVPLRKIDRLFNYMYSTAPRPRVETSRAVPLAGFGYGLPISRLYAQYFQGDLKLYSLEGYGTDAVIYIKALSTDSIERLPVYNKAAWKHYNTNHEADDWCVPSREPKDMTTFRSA
UniProt P53350, whole entry: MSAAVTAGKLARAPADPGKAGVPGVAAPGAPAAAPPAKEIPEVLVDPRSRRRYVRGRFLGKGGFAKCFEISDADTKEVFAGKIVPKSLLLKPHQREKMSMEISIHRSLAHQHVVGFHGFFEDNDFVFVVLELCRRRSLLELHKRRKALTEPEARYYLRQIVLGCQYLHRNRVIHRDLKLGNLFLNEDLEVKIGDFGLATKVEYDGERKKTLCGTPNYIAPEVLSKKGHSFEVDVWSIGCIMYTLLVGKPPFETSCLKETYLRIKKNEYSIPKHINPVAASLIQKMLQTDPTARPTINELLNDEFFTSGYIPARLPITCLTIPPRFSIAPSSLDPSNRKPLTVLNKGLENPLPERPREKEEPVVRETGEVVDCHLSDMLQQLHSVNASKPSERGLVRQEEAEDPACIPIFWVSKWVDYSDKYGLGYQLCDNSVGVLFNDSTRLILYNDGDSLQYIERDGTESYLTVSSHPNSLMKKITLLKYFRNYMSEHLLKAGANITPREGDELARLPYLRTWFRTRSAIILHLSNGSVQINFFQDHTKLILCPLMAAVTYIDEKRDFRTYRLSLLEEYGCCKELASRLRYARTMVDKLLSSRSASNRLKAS
UniProt Q14289, whole entry, looked up: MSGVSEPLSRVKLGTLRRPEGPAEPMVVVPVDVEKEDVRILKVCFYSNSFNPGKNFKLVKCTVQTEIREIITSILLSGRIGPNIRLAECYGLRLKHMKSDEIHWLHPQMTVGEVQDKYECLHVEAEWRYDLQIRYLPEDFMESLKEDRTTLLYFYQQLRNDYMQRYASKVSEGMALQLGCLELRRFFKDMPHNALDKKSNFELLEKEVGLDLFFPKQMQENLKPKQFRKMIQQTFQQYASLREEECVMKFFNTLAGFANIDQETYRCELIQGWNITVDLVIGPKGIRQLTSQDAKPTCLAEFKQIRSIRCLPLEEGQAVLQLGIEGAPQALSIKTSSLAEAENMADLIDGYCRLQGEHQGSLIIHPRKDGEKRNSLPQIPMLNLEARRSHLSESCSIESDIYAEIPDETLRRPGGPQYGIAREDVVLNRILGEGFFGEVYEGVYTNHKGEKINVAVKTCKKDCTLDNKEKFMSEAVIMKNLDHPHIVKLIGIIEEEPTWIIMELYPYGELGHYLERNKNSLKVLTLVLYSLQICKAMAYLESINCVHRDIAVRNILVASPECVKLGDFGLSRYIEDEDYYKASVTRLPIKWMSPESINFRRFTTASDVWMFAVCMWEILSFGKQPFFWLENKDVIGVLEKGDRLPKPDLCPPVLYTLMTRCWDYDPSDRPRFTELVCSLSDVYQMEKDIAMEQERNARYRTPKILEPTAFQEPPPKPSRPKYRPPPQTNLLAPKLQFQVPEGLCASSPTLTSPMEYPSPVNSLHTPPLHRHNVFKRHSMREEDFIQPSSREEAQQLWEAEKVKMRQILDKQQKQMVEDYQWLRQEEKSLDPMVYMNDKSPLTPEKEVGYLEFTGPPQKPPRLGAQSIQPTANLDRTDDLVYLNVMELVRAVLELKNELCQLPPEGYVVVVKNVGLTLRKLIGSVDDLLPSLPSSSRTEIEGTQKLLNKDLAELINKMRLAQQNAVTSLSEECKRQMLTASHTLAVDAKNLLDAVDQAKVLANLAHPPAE
UniProt P07949, whole entry, looked up: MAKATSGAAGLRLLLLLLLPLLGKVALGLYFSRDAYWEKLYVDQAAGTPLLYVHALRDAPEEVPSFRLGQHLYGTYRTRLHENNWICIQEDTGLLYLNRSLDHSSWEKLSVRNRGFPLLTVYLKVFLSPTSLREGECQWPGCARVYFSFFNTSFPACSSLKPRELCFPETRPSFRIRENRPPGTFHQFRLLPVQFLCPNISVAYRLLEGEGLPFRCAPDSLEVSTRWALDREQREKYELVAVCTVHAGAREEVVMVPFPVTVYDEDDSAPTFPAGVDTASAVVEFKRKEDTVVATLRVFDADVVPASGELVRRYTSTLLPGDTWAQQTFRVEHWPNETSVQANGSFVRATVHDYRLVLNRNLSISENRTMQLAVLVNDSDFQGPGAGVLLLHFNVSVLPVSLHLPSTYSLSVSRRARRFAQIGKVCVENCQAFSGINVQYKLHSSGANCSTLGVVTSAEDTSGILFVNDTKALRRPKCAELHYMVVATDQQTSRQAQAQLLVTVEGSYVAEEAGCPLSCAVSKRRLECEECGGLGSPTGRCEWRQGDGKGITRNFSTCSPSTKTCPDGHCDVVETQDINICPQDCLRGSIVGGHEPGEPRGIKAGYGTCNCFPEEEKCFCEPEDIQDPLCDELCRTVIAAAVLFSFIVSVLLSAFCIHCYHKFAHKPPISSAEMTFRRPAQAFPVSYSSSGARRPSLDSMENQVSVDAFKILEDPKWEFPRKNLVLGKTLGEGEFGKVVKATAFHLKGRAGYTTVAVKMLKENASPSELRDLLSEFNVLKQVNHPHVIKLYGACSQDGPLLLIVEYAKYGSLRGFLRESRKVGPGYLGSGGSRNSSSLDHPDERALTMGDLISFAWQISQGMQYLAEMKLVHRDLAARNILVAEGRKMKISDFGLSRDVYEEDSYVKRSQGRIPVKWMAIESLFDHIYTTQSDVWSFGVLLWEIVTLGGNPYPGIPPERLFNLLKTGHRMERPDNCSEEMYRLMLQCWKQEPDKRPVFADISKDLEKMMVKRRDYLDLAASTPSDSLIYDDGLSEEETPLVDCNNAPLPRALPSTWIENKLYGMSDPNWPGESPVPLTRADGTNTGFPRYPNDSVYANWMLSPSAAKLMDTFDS
UniProt P07949, whole entry M918T, looked up: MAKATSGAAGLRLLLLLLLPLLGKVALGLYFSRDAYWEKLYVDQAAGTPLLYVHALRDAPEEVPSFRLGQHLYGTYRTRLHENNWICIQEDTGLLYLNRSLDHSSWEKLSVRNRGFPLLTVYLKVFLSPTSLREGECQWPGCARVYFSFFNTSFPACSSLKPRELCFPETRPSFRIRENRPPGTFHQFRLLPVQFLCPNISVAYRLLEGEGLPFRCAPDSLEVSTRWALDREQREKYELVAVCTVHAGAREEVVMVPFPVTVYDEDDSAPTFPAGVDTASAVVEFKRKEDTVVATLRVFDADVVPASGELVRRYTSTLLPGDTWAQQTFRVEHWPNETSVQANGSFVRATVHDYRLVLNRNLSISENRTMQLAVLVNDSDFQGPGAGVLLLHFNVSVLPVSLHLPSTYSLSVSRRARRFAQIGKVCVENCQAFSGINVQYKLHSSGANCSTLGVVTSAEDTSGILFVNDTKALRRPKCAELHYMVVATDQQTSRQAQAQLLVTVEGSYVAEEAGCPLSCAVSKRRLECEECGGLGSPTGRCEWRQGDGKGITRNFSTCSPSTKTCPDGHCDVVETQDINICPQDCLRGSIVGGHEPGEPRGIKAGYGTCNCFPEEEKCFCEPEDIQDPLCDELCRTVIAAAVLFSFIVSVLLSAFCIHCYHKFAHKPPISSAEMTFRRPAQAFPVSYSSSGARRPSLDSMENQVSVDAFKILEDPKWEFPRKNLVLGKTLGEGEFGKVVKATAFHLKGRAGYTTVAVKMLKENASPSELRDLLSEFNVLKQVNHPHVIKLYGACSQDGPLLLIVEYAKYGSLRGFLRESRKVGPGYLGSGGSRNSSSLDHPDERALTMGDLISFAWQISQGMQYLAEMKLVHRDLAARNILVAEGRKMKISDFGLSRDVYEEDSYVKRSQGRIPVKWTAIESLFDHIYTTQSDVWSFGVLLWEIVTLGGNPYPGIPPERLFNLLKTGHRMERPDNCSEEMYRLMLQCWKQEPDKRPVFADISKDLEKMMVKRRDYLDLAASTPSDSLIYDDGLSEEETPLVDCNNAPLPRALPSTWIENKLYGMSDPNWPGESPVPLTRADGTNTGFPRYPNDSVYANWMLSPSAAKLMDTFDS

What was measured:
Experiment in all cases: number of time points (of 5) at which kinase-Nluc abundance scored as decreased, DMSO-normalised (count); higher = more persistent destabilization
Conditions in all cases: K562; 2-18 h
[1] = biological target: NTRK3 (UniProt Q16288)
[2] = biological target: PAK4 (UniProt O96013)
[3] = biological target: PBK (UniProt Q96KB5)
[4] = biological target: PDGFRB (UniProt P09619)
[5] = biological target: PDK1 (UniProt Q15118)
[6] = biological target: PDPK1 (UniProt O15530)
[7] = biological target: PIK4CA (UniProt P42356)
[8] = biological target: PIK4CB (UniProt Q9UBF8)
[9] = biological target: PLK1 (UniProt P53350)
[10] = biological target: PRKAA1 (UniProt Q13131)
[11] = biological target: PRKCA (UniProt P17252)
[12] = biological target: PTK2 (UniProt Q05397)
[13] = biological target: PTK2B (UniProt Q14289)
[14] = biological target: RAF1 (UniProt P04049)
[15] = biological target: RAF1_S257L (clone: RAF1_mut) (UniProt P04049)
[16] = biological target: RET (UniProt P07949)
[17] = biological target: RET_M918T (clone: RET_mut) (UniProt P07949)
[18] = biological target: RIOK1 (UniProt Q9BRS2)
[19] = biological target: RIPK1 (UniProt Q13546)
[20] = biological target: RIPK2 (UniProt O43353)

Compound	number of time points [1]	number of time points [2]	number of time points [3]	number of time points [4]	number of time points [5]	number of time points [6]	number of time points [7]	number of time points [8]	number of time points [9]	number of time points [10]	number of time points [11]	number of time points [12]	number of time points [13]	number of time points [14]	number of time points [15]	number of time points [16]	number of time points [17]	number of time points [18]	number of time points [19]	number of time points [20]
O=C(O)c1sc2cc(Cl)ccc2c1Cl (10 µM)	0	0	0	0	0	0	0	0	0	0	0	0	0	0	0	0	0	0	0	0
O=C1C=CC[C@@H]2[C@H]3CCCN4CCC[C@@H](CN12)[C@@H]34 [Sophocarpine (monohydrate)] (2.5 µM)	0	0	0	0	0	0	0	0	0	0	0	0	0	0	0	0	0	0	0	0
C=C[C@H]1CN2CC[C@]3(C(=O)Nc4ccccc43)[C@@H]2C[C@@H]1/C(=C\OC)C(=O)OC [Corynoxeine] (2 µM)	0	0	0	0	0	0	0	0	0	0	0	0	0	0	0	0	0	0	0	0
CCCCCCCCCCCCCCCCOC[C@H](COP(=O)([O-])OCC[N+](C)(C)C)OC(C)=O (10 µM)	0	0	0	0	0	0	0	0	0	0	0	0	0	0	0	0	0	0	0	0
O=c1cc(O)c2ccccc2o1 [4-Hydroxycoumarin] (10 µM)	0	0	0	0	0	0	0	0	0	0	0	0	0	0	0	0	0	0	0	0
CC(=O)O[C@H]1[C@H]2[C@@H](OC(=O)Cc3ccccc3)[C@@H](C)C[C@]2(OC(C)=O)C(=O)/C(C)=C/[C@@H]2[C@H](CC[C@@]13CO3)C2(C)C [Euphorbiasteroid] (10 µM)	0	0	0	0	0	0	0	0	0	0	0	0	0	0	0	0	0	0	0	0
COc1ccc2c(c1OC)C(OC)N(C)c1c-2ccc2cc3c(cc12)OCO3 (stereo not given) [Angoline] (10 µM)	0	0	0	0	0	0	0	0	0	0	0	0	0	0	0	0	0	0	0	0
O=C(O)c1nn(Cc2ccc(Cl)cc2Cl)c2ccccc12 [Lonidamine] (10 µM)	0	0	0	0	0	0	0	0	0	0	0	0	0	0	0	0	0	0	0	0
CCCS(=O)(=O)Nc1ccc(F)c(-n2cc(-c3cncnc3)c3nc(N(C)C4CCN(CC)CC4)ccc32)c1F (2 µM)	0	0	0	0	0	0	0	0	0	0	0	0	0	0	0	0	0	0	0	0
C[C@H](CCC(=O)O)C[C@H](C)C[C@H](C)C(=O)/C=C(\O)[C@H](C)C[C@H](C)C/C=C/[C@@H](C)[C@@H](O)[C@@H](C)[C@@H](O)C[C@@H]1CC[C@@](C)([C@H]2CC[C@@](C)([C@@H](C)O)O2)O1 [Ionomycin (calcium)] (2.5 µM)	0	0	0	0	0	0	0	0	0	5	0	1	0	0	0	0	0	5	0	0
CC(C)(C)c1cc(C=C(C#N)C#N)cc(Br)c1O (2.5 µM)	0	0	0	0	0	0	0	0	0	0	0	0	0	0	0	0	0	0	0	0
CCOC(=O)c1c(/C(C#N)=C\N)c2ccc(Cl)c(Cl)c2n1C (10 µM)	0	0	0	0	0	0	0	0	0	0	0	0	0	0	0	0	0	0	0	0
